Data on 1 substance can be found in publication PMC8854406.

Results are given in words; binding and its absence hold for the method and conditions named. In cells and extracts the contact can be indirect. Tags and fused reporters may be left off the sequences shown.

For this test, the target named is T1, Myc-KIRREL1-HA (full-length KIRREL1) (UniProt Q96J84).
T1 sequence: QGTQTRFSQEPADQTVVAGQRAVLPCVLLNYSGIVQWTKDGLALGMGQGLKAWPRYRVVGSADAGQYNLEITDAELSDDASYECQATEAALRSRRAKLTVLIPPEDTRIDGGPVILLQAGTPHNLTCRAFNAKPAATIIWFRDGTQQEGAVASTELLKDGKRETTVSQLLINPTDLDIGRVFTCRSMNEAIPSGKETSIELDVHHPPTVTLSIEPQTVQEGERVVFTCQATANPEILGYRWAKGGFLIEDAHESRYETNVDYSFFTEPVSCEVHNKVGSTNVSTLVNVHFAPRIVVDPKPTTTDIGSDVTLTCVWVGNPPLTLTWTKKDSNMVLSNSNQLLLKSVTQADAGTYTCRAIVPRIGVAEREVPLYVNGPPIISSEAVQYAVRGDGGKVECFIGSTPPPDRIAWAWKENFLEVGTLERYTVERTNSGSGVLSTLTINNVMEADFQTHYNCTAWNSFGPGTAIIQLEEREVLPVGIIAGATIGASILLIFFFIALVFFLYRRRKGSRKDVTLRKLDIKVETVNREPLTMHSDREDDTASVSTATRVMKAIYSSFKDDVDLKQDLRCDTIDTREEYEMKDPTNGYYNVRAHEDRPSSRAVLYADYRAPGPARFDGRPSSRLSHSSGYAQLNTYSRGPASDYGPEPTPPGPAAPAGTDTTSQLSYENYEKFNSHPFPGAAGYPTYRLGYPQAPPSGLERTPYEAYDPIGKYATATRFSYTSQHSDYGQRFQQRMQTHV
Kind of test: co-IP; HEK293T cells co-transfected; NP40 lysis buffer; cleared lysates incubated with anti-Flag tag or anti-Myc tag magnetic beads overnight at 4 °C; beads washed four times; immunoblot. A general note: Immunoblotting shows a protein as a band on a membrane.

As to Flag-tagged MOB1, the binding entry is on record as “no binding”.
